Data as given in article PMC9947773, “Modeling C3 glomerulopathies: C3 convertase regulation on an extracellular matrix surface” (Frontiers in Immunology, 2022).
These are yes or no findings as the source states them, for the method shown. Some entries that bind do so weakly or less than the wild type.

Sequences of proteins named here, by UniProt entry; tags and fusion partners are left off. A change or cut given only in a name is not applied to a line headed by its entry. A line that says so, or that is headed by a name, gives the form on record, which may keep a tag or linker. Residues count along the entry.
UniProt P01024: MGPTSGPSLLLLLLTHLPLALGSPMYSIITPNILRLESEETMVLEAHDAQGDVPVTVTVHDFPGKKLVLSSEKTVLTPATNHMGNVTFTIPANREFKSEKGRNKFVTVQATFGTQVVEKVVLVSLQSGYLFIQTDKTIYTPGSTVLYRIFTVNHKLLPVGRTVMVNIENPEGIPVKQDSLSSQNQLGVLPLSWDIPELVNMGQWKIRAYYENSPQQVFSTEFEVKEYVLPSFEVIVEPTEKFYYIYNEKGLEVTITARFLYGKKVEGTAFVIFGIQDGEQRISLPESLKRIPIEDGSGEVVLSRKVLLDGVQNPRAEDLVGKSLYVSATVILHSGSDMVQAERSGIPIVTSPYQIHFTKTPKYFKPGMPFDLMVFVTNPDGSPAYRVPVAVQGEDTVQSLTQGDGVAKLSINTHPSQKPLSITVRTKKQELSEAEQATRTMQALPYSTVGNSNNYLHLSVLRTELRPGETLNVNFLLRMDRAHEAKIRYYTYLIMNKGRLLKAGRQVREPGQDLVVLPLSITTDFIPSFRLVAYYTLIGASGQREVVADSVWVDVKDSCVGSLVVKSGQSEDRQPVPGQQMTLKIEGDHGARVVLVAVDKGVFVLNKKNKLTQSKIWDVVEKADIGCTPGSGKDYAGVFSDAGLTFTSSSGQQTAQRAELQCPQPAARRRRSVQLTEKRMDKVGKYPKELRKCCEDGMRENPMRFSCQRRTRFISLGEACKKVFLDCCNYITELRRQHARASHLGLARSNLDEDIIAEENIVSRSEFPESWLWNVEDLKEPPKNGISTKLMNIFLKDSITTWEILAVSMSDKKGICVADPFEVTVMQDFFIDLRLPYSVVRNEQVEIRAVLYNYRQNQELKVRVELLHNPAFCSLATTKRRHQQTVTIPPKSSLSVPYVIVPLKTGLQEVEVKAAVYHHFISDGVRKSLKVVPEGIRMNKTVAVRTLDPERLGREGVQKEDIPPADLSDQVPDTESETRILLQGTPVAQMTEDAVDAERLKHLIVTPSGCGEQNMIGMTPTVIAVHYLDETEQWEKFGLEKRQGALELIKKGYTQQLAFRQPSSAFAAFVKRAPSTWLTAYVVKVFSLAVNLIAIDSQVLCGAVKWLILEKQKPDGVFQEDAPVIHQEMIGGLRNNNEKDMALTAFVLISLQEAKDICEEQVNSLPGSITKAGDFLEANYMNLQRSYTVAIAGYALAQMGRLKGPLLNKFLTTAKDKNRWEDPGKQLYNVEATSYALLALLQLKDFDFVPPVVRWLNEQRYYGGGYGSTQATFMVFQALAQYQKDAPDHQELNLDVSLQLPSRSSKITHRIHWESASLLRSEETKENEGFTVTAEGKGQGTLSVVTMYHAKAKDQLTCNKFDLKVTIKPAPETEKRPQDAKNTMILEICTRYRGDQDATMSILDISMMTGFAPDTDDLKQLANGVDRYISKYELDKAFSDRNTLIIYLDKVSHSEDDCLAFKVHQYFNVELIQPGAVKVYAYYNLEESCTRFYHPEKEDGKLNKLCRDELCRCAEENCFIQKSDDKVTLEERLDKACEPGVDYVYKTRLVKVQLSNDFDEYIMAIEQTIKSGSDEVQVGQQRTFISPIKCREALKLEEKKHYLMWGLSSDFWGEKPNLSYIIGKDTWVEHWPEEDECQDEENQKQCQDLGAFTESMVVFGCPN
Recombinant WT Factor H (FH his) (P08603, residues 19-1231): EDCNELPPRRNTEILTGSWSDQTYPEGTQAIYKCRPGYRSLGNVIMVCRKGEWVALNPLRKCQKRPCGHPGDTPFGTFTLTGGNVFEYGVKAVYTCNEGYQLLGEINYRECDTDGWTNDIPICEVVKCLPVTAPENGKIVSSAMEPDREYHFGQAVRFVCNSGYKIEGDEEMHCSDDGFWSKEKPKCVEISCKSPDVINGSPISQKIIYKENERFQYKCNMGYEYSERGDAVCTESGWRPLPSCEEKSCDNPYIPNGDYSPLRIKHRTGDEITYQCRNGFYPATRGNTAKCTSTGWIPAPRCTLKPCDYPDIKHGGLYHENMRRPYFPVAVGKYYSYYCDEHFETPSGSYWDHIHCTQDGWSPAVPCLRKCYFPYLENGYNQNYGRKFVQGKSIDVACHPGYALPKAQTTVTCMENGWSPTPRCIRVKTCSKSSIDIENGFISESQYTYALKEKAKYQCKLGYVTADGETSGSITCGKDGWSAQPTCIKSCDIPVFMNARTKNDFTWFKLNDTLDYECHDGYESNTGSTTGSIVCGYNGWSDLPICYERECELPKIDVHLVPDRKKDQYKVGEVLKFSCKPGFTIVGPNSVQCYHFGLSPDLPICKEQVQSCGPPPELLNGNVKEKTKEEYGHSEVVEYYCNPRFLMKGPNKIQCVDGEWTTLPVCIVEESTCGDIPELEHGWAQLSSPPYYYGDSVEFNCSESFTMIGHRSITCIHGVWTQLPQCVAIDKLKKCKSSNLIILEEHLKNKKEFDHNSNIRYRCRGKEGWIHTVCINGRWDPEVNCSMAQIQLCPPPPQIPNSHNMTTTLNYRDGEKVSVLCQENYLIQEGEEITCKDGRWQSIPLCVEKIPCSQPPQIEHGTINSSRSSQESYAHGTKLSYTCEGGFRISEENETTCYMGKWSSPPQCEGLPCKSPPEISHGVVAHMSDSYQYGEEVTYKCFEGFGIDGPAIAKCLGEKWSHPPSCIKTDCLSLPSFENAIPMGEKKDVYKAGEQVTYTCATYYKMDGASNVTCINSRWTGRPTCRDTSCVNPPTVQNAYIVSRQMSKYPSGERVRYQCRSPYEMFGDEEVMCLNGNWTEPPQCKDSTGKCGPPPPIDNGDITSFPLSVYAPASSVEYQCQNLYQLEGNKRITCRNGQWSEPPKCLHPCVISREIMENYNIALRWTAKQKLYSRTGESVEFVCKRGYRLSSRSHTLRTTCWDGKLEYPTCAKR
Recombinant Factor H p.Arg53Cys (P08603, form named): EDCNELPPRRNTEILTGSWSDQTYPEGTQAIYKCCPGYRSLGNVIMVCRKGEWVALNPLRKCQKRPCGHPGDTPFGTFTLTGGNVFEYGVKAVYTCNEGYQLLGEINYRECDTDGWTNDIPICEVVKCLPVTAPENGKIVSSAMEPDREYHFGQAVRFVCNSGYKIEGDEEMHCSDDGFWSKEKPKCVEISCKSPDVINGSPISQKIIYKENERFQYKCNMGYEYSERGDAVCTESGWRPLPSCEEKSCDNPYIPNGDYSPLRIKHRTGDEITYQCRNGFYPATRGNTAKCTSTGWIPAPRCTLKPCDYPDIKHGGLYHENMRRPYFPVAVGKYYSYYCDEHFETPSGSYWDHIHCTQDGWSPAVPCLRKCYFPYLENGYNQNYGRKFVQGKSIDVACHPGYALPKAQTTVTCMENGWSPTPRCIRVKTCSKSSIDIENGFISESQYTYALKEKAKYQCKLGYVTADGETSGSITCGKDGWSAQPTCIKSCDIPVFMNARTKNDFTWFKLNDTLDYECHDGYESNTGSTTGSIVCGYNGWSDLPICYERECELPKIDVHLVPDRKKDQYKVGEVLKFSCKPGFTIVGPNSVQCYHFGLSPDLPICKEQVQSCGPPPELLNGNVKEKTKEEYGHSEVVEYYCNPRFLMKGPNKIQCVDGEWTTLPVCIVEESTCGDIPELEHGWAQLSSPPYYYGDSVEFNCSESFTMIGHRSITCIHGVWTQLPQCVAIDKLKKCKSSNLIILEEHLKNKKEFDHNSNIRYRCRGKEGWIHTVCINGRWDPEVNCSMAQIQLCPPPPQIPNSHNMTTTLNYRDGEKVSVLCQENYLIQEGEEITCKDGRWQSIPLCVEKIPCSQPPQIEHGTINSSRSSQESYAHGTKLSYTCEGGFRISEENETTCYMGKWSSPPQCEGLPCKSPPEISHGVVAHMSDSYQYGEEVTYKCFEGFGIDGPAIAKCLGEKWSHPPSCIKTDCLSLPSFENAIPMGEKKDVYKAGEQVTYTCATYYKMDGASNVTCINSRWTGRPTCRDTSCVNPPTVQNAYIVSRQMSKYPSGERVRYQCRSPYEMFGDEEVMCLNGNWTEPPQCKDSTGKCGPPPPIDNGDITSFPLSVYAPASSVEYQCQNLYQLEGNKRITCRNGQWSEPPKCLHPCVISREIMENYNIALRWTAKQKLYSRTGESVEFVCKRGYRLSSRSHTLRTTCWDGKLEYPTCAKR

Target: T1, C3b (human, UniProt P01024 23-667; P01024 749-1663)
T1 construct: complement C3, human; beta chain of C3b; alpha' chain of C3b (alpha chain without C3a); Coated on MaxGel (ECM) in microtiter wells at 130 ug/ml; also called purified C3b; source: bought: Complement Technology Inc., purified
Test: C3 convertase formation assay (C3CFA), elution and western blot for Bb; C3b coated on MaxGel; FB + FD with Factor H or a Factor H variant as reactant (22.5 ug/ml), 10 min at 37°C; washed x3; eluted; both purified

Row | Substance | binding
1 | Recombinant Factor H p.Arg53Cys (from UniProt P08603 19-1231) | binds
2 | Recombinant WT Factor H (FH his) (from UniProt P08603 19-1231) | binds
